# According to article PMC5996148:
# Several values for one entry are separate records, joined by “and”; a condition that tells them apart may be missing. Equal values may be shown once. This is one part of the list.
# Assays:
# Test in all cases: protein microarray (ProtoArray v5.0), streptavidin-Alexa Fluor 647
# Details in all cases: 3'-biotin; 20 mM Tris (pH 7.5), 5 mM MgCl2, 100 mM KCl, 0.1% Tween-20, A/T-rich and random oligonucleotide blockers; temperature not stated; high values mean tight binding
# [1] = tested on: C6orf106 (human)
# [2] = tested on: C6orf108 (human)
# [3] = tested on: C6orf118 (human)
# [4] = tested on: C6orf145 (human)
# [5] = tested on: C6orf162 (human)
# [6] = tested on: C6orf206 (human)
# [7] = tested on: C6orf35 (human)
# [8] = tested on: C6orf48 (human)
# [9] = tested on: C6orf49 (human)
# [10] = tested on: C6orf58 (human)
# [11] = tested on: C6orf89 (human)
# [12] = tested on: C7orf13 (human)
# [13] = tested on: C7orf24 (human)
# [14] = tested on: C7orf25 (human)
# [15] = tested on: C7orf27 (human)
# [16] = tested on: C7orf30 (human)
# [17] = tested on: C7orf36 (human)
# [18] = tested on: C7orf41 (human)
# [19] = tested on: C7orf42 (human)
# [20] = tested on: C7orf45 (human)
sequence,measurement,setting,value
GGGAGGCTGAGGCAGG [G4-1 biotinylated (PQS2)],binding signal,[1],-0.323 z-score and -0.333 z-score
same,binding signal,[2],-0.33 z-score
same,binding signal,[3],-0.306 z-score
same,binding signal,[4],-0.331 z-score
same,binding signal,[5],-0.321 z-score
same,binding signal,[6],-0.322 z-score
same,binding signal,[7],-0.381 z-score
same,binding signal,[8],-0.306 z-score
same,binding signal,[9],-0.363 z-score
same,binding signal,[10],-0.325 z-score
same,binding signal,[11],-0.346 z-score
same,binding signal,[12],-0.313 z-score
same,binding signal,[13],-0.331 z-score
same,binding signal,[14],-0.253 z-score
same,binding signal,[15],-0.329 z-score
same,binding signal,[16],-0.334 z-score
same,binding signal,[17],-0.361 z-score
same,binding signal,[18],-0.364 z-score
same,binding signal,[19],-0.271 z-score
same,binding signal,[20],-0.306 z-score

# Reprinted at random: two records from the list
sequence,measurement,setting,value
GGGAGGCTGAGGCAGG [G4-1 biotinylated (PQS2)],binding signal,[11],-0.346 z-score
same,binding signal,[16],-0.334 z-score
